Results as given in patent US20200270588A1, “GLUCOSYL TRANSFERASE POLYPEPTIDES AND METHODS OF USE” (Syngenta Participations AG, priority 2017, published 2020).

Experiment: UDP luminescence plate assay of E. coli extracts, mutants of SEQ ID No: 1, 2 mM metribuzin
Format: biochemical, Zea mays
Method: Optionally plate assays are stopped with brief heating to 95 C before returning to ice and addition of UDP-Glo detection reagent followed by incubation at lab temperature. […] In addition a UDP standard curve is run alongside each set of plate tests.
Assays were carried out on extracts of E. coli BL21 DE3 expressing the various C-terminally his-tagged library variants of SEQ ID NO:1 at the amino acid positions listed in Table 11 as described in Example 2 except, in this case, with 2 mM metribuzin in place of herbicide V.
Thus the ratio of the metribuzin to DMSO signal as well as the increase in signal relative to the w/t bx9 is used to help distinguish those mutations most likely to offer the highest activity to metribuzin. A follow up assay monitored by, for example, LC MS is one method to distinguish these cases more quantitatively.

B1: bx9 w/t: wild type Zea mays bx9 glucosyl transferase, C-terminally his-tagged SEQ ID NO: 1 (protein)
chain: MASSRTGAGAGGRVVVFPFPFQGHFNPVMRLARALHARGLAITVFHSGALDPADYPADYRFVPVTVEADPKLLASEDIAAIVTTLNASCDAPFRARLSALLAAEGRDSVRCVFTDVSWNAVLTASSDLGVPALGMMTASAASLRDYMAYRTLIDKGYLPVKEERKEDPVPELPPYLVKDLLRVDTSDLEEFAELLARTVTAARRASGLIFNTFPLIETDTLAEIHKALSVPVFAVAPLNKLVPTATASLHGVVQADRGCLQWLDTQQPGSVLYVSFGSMAAMDPHEFVELAWGLADSKRPFVWVVRPNLIRGFESGALPDGVEDEVRGRGIVVAWAPQEEVLAHPAVGGFLTHNGWNSTVEAISEGVPMVCCPRHGDQFGNMRYVCDVWKVGTELVGEQLERGQVKAAIDRLFGTKEGEEIKERMKEFKIAAAKGIGIGVDVDETASPRTDLTDLVDLIKSF
modifications: C-terminal His tag; Zea mays
Which “RATIO: metribuzin signal to DMSO signal” value (2 mM metribuzin) does the source give for B1 here?
Its value is 0.97.

And the “RATIO of the metribuzin signal to the DMSO signal” value (2 mM metribuzin vs DMSO control, same mutant)?
Its value is 1.01.

What about the “metribuzin signal relative to DMSO control background signal” value (after subtracting the H24A null background) of the same molecule?
Its value is 2-2.5 ×.
